We go through one sequence from PMC5996148.

The other results are listed elsewhere or left out. For some of these results: Construct or isoform of the protein are uncertain.

Among the test systems are TEAD4 (human); TEKT2 (human); TESC (human); TEX13B (human); TEX264 (human); TF (human); TFF2 (human); TGDS (human); TGFB1I1 (human).
What all share (assay): protein microarray (ProtoArray v5.0), streptavidin-Alexa Fluor 647
What all share (conditions): 3'-biotin; 20 mM Tris (pH 7.5), 5 mM MgCl2, 100 mM KCl, 0.1% Tween-20, A/T-rich and random oligonucleotide blockers; temperature not stated; high values mean tight binding

A further assay deals with T1, TEKT4 (UniProt Q8WW24).
T1 sequence: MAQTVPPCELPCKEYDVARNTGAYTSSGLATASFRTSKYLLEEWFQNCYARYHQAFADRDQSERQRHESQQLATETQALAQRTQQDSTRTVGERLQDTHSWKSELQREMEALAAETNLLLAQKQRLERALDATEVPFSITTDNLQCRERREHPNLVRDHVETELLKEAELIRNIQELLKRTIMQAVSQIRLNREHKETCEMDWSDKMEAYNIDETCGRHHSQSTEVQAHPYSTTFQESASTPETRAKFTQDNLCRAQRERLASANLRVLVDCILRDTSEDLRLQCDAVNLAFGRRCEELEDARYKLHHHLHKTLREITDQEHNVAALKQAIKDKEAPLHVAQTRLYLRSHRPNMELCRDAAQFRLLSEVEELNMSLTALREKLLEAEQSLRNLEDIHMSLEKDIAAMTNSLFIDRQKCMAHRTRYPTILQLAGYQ

For the sequence “GGGAGGCTGAGGCAGG [G4-1 biotinylated (PQS2)]”, the binding signal in the assay with TEAD4 (human) is -0.326 z-score; with TEKT2 (human), -0.343 z-score; in the assay with TEKT4, -0.341 z-score; with TESC (human), -0.338 z-score; in the assay with TEX13B (human), -0.344 z-score; with TEX264 (human) it was -0.323 z-score. For the same sequence, the binding signal is -0.35 z-score with TF (human), -0.314 z-score in the assay with TFF2 (human), -0.264 z-score with TGDS (human) and -0.312 z-score with TGFB1I1 (human).
